Source: publication doi:10.1101/346619
Results are given in words; binding and its absence hold for the method and conditions named. Sequences can lack the tags named with a protein.

Target: T1, TR2 (NR2C1), two-hybrid fusion, Q505F1
T1 chain: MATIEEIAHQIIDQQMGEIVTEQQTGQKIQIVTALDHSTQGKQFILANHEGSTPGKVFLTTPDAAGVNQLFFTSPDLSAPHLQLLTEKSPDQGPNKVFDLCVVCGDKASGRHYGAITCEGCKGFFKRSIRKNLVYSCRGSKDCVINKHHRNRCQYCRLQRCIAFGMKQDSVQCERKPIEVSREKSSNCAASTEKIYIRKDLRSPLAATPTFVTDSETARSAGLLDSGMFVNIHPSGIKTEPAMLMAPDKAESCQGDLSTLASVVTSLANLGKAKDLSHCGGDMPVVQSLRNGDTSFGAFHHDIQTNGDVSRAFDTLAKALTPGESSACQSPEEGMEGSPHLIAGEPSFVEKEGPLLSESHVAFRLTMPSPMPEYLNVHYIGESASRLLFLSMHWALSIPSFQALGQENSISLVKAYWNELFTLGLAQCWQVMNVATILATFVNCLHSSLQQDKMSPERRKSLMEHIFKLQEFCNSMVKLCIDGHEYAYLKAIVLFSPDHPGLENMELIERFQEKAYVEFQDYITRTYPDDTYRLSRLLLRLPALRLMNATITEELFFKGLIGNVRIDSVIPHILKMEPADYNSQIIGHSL
Assay: two-hybrid
Settings: remark: other sources report otherwise

binding: no binding
B1: HDAC3, two-hybrid fusion, O88895 1-428 (enzyme)
chain: MAKTVAYFYDPDVGNFHYGAGHPMKPHRLALTHSLVLHYGLYKKMIVFKPYQASQHDMCRFHSEDYIDFLQRVSPTNMQGFTKSLNAFNVGDDCPVFPGLFEFCSRYTGASLQGATQLNNKICDIAINWAGGLHHAKKFEASGFCYVNDIVIGILELLKYHPRVLYIDIDIHHGDGVQEAFYLTDRVMTVSFHKYGNYFFPGTGDMYEVGAESGRYYCLNVPLRDGIDDQSYKHLFQPVISQVVDFYQPTCIVLQCGADSLGCDRLGCFNLSIRGHGECVEYVKSFNIPLLVLGGGGYTVRNVARCWTYETSLLVEEAISEELPYSEYFEYFAPDFTLHPDVSTRIENQNSRQYLDQIRQTIFENLKMLNHAPSVQIHDVPADLLTYDRTDEADAEERGPEENYSRPEAPNEFYDGDHDNDKESDVEI
